Assay results published in PMC4682425.
No constants are given. Whether binding was seen depends on the method and setting. For some of these results: Binding seen in cells or lysates may run through a third protein. Some results given as binding are weak or reduced against the parent protein; the word gives no strength.

Amino acid sequences for entries named in this document (tags omitted). A change or cut given only in a name is not applied to a line headed by its entry. Residues count along the entry.
UniProt Q8LDP4, residues 24-201: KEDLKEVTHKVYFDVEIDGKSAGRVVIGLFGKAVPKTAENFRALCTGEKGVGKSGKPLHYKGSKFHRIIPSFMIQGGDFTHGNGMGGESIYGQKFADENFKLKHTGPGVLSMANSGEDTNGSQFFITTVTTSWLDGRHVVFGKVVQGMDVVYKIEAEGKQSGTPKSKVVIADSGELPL
UniProt Q9SP02: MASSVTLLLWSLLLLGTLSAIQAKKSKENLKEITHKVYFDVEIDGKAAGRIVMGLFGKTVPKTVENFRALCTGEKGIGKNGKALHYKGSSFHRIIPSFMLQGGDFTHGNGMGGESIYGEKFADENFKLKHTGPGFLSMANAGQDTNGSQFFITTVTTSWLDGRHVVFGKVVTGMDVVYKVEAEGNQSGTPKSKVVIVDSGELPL
AtCYP20-1 mature protein (amino acids 21-204), yeast two-hybrid bait: residues 21-204 of Q9SP02
AtCYP20-1 full length, BiFC construct in pSPYNE-35S: residues 24-204 of Q9SP02

B1: AtRCN1 full-length coding region, yeast two-hybrid prey (protein, UniProt Q38845 1-588)
chain: MAMVDEPLYPIAVLIDELKNDDIQLRLNSIRRLSTIARALGEERTRKELIPFLSENSDDDDEVLLAMAEELGVFIPFVGGIEFAHVLLPPLESLCTVEETCVREKAVESLCKIGSQMKENDLVESFVPLVKRLAGGEWFAARVSACGIFHVAYQGCTDVLKTELRATYSQLCKDDMPMVRRAAASNLGKFATTVESTFLIAEIMTMFDDLTKDDQDSVRLLAVEGCAALGKLLEPQDCVARILPVIVNFSQDKSWRVRYMVANQLYELCEAVGPDCTRTDLVPAYVRLLRDNEAEVRIAAAGKVTKFCRLLNPELAIQHILPCVKELSSDSSQHVRSALASVIMGMAPILGKDSTIEHLLPIFLSLLKDEFPDVRLNIISKLDQVNQVIGIDLLSQSLLPAIVELAEDRHWRVRLAIIEYVPLLASQLGIGFFDDKLGALCMQWLQDKVYSIREAAANNLKRLAEEFGPEWAMQHLVPQVLDMVNNPHYLHRMMVLRAISLMAPVMGSEITCSKFLPVVVEASKDRVPNIKFNVAKLLQSLIPIVDQSVVDKTIRQCLVDLSEDPDVDVRYFANQALNSIDGSTAAQS
B2: AtRCN1, BiFC construct in pSPYCE-35S (protein, UniProt Q38845 1-588)
chain: MAMVDEPLYPIAVLIDELKNDDIQLRLNSIRRLSTIARALGEERTRKELIPFLSENSDDDDEVLLAMAEELGVFIPFVGGIEFAHVLLPPLESLCTVEETCVREKAVESLCKIGSQMKENDLVESFVPLVKRLAGGEWFAARVSACGIFHVAYQGCTDVLKTELRATYSQLCKDDMPMVRRAAASNLGKFATTVESTFLIAEIMTMFDDLTKDDQDSVRLLAVEGCAALGKLLEPQDCVARILPVIVNFSQDKSWRVRYMVANQLYELCEAVGPDCTRTDLVPAYVRLLRDNEAEVRIAAAGKVTKFCRLLNPELAIQHILPCVKELSSDSSQHVRSALASVIMGMAPILGKDSTIEHLLPIFLSLLKDEFPDVRLNIISKLDQVNQVIGIDLLSQSLLPAIVELAEDRHWRVRLAIIEYVPLLASQLGIGFFDDKLGALCMQWLQDKVYSIREAAANNLKRLAEEFGPEWAMQHLVPQVLDMVNNPHYLHRMMVLRAISLMAPVMGSEITCSKFLPVVVEASKDRVPNIKFNVAKLLQSLIPIVDQSVVDKTIRQCLVDLSEDPDVDVRYFANQALNSIDGSTAAQS

Experiments:
[1] = biological target: AtCYP19-4 mature protein (amino acids 24-201), yeast two-hybrid bait (Arabidopsis thaliana) (UniProt Q8LDP4); assay: two-hybrid; pGBK7 constructs (CYPs) and pGADT7 constructs (AtRCN1, AtGNOM-F, AtGNOM-N) co-transformed in yeast AH109; growth on SD/-WLH + 1.5 mM 3-AT; empty pGADT7 as negative control
[2] = biological target: AtCYP20-1 mature protein (amino acids 21-204), yeast two-hybrid bait (Arabidopsis thaliana) (UniProt Q9SP02); assay: as above
[3] = biological target: AtCYP19-4 full length, BiFC construct in pSPYNE-35S (Arabidopsis thaliana) (UniProt Q8LDP4); assay: split reporter; BiFC: CYPs in pSPYNE-35S and AtRCN1 in pSPYCE-35S co-infiltrated with the P19 silencing suppressor into 4-week-old N. benthamiana leaves; yellow fluorescent protein fluorescence at 24-48 h post-infiltration, confocal microscopy
[4] = biological target: AtCYP20-1 full length, BiFC construct in pSPYNE-35S (Arabidopsis thaliana) (UniProt Q9SP02); assay: as above

| Binder | binding [1] | binding [2] | binding [3] | binding [4] |
| --- | --- | --- | --- | --- |
| B1 | binds | binds | – | – |
| B2 | – | – | binds | binds |
